Experimental data: PMC6009973 (Journal of Enzyme Inhibition and Medicinal Chemistry, 2017)

Chains of the proteins cited; added tags and fusions are not shown. Residues count along the entry.
UniProt A0A0H2YPC2, 1-190: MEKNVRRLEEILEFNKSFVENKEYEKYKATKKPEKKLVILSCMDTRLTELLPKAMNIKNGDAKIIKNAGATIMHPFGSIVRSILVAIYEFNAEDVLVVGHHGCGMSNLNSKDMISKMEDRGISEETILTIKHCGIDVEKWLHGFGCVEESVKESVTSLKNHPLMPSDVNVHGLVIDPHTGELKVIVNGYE

Molecular target: T1, CpeCA (Clostridium perfringens, UniProt A0A0H2YPC2)
T1 construct: gene CPF_0414
Details: read-out: CpeCA^bβ; CO2 1.7-17 mM, 20 mM TRIS pH 8.3, 20 mM Na2SO4, 15 min pre-incubation at room temperature; errors 5-10%

SMILES	Ki [nM]
CCN[C@H]1C[C@H](C)S(=O)(=O)c2sc(S(N)(=O)=O)cc21 [DZA, dorzolamide]	37.4
CC(=O)Nc1nnc(S(N)(=O)=O)s1 [AAZ, acetazolamide]	49.1
